Some entries share one result that the patent states for a list of compounds.
System: Leishmania donovani (L. Don, MHOM/ET/67/L82 strain)
Test: Leishmania protozoa proliferation inhibition test (amastigotes, Alamar Blue)
Assay type: cell-based
Conditions: protozoa inhibitory activity compared with miltefosine
Description: In this test, Leishmania donovani (L. Don, MHOM/ET/67/L82 strain) was used. The protozoa were maintained in the Syrian Golden hamster, and amastigotes were collected from the spleen of an infected hamster. A SM medium supplemented with 10% heat-inactivated fetal bovine serum was used in the experiment, and the pH was adjusted to 5.4. The protozoa were grown at 37° C. under an atmosphere having a CO2 concentration of 5%. The activity with respect to inhibition of the proliferation of leishmania protozoa was studied for Compounds A, C, and D according to the invention for test, and for MKT-077, Compound X, and miltefosine (positive compound, existing drug) as comparative compounds. The structures of the compounds are as shown below. Each compound was dissolved in DMSO to give a test solution having a predetermined concentration. Each of the compounds to be used in the test was dissolved in DMSO to give a test solution having a concentration of 10 mg/mL. […] The intensity of fluorescence at 588 nm was measured, and the residual ratios of leishmania protozoa in the group added with the test solution and in the control were calculated. […] The selective toxicity coefficient, which is used as an index of the selectivity against leishmania protozoa, was calculated according to the following equation, and the drug efficacy was evaluated. […]

CCn1c(=O)/c(=C/C=C2\Sc3ccccc3N2C)s/c1=C\c1sc2ccc(F)cc2[n+]1C.[Cl-] [Compound A]
Activity relative to miltefosine: more than 10 times

From US8471036B2, “Rhodacyanine derivative and pharmaceutical composition for treating leishmaniasis” (FUJIFILM Corporation, priority 2009, dated 2013)
